Results: the supplement of paper PMC10849652
This is one part of the list.

Sequences of proteins named here, by UniProt entry; tags and fusion partners are left off. A change or cut given only in a name is not applied to a line headed by its entry.
UniProt P42695: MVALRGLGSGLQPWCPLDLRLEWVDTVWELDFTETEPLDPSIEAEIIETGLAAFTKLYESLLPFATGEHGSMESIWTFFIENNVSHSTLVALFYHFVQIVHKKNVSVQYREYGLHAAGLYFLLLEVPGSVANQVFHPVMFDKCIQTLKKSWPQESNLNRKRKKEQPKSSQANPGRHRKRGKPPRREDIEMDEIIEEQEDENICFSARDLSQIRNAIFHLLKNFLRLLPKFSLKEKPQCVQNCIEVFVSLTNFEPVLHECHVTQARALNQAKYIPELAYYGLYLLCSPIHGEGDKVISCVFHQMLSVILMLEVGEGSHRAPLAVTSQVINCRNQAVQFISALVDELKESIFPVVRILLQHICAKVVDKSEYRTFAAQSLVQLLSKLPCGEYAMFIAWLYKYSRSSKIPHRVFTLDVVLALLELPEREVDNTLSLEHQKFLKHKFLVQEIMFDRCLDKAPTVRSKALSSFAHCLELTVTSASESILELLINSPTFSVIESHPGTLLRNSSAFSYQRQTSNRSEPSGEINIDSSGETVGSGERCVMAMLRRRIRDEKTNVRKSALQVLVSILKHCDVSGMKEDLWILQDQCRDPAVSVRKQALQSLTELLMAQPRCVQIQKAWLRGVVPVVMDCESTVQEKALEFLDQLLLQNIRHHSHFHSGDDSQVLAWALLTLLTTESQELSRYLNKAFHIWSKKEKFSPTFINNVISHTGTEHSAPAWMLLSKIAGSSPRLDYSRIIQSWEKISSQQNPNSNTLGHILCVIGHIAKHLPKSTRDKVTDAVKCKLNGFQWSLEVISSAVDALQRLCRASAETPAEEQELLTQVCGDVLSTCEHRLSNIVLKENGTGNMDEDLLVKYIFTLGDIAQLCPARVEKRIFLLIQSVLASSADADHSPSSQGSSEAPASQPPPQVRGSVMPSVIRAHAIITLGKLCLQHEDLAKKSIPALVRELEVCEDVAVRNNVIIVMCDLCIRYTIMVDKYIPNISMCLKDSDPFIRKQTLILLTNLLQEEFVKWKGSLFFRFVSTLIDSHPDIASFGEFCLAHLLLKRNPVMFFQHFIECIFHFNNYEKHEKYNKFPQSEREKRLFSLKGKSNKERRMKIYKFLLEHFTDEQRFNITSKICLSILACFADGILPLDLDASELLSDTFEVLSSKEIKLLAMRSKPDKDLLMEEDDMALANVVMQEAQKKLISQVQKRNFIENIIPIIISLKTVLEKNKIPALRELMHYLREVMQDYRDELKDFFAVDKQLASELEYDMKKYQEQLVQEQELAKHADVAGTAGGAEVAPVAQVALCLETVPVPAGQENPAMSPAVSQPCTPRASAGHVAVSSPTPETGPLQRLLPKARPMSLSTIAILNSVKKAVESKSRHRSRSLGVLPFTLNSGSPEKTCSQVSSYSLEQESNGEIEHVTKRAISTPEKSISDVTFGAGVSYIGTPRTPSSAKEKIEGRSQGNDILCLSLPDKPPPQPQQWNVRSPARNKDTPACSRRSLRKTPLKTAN
UniProt O14777: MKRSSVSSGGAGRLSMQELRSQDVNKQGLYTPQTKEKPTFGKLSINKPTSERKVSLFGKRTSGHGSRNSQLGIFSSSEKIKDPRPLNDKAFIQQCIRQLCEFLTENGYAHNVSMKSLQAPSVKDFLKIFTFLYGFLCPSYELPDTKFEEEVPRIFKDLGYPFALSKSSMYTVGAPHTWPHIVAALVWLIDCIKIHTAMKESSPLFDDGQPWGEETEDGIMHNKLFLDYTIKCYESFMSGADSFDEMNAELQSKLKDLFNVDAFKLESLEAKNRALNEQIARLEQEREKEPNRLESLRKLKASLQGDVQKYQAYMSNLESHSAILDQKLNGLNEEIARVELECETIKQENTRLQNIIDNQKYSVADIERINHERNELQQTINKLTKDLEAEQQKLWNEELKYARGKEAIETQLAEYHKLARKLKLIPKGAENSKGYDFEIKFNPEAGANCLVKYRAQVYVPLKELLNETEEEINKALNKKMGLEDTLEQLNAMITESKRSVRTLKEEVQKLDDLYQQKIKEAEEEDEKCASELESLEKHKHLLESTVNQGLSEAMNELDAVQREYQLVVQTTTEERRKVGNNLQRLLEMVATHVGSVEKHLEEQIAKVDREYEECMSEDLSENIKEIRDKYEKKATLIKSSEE
UniProt O75376, whole entry, looked up: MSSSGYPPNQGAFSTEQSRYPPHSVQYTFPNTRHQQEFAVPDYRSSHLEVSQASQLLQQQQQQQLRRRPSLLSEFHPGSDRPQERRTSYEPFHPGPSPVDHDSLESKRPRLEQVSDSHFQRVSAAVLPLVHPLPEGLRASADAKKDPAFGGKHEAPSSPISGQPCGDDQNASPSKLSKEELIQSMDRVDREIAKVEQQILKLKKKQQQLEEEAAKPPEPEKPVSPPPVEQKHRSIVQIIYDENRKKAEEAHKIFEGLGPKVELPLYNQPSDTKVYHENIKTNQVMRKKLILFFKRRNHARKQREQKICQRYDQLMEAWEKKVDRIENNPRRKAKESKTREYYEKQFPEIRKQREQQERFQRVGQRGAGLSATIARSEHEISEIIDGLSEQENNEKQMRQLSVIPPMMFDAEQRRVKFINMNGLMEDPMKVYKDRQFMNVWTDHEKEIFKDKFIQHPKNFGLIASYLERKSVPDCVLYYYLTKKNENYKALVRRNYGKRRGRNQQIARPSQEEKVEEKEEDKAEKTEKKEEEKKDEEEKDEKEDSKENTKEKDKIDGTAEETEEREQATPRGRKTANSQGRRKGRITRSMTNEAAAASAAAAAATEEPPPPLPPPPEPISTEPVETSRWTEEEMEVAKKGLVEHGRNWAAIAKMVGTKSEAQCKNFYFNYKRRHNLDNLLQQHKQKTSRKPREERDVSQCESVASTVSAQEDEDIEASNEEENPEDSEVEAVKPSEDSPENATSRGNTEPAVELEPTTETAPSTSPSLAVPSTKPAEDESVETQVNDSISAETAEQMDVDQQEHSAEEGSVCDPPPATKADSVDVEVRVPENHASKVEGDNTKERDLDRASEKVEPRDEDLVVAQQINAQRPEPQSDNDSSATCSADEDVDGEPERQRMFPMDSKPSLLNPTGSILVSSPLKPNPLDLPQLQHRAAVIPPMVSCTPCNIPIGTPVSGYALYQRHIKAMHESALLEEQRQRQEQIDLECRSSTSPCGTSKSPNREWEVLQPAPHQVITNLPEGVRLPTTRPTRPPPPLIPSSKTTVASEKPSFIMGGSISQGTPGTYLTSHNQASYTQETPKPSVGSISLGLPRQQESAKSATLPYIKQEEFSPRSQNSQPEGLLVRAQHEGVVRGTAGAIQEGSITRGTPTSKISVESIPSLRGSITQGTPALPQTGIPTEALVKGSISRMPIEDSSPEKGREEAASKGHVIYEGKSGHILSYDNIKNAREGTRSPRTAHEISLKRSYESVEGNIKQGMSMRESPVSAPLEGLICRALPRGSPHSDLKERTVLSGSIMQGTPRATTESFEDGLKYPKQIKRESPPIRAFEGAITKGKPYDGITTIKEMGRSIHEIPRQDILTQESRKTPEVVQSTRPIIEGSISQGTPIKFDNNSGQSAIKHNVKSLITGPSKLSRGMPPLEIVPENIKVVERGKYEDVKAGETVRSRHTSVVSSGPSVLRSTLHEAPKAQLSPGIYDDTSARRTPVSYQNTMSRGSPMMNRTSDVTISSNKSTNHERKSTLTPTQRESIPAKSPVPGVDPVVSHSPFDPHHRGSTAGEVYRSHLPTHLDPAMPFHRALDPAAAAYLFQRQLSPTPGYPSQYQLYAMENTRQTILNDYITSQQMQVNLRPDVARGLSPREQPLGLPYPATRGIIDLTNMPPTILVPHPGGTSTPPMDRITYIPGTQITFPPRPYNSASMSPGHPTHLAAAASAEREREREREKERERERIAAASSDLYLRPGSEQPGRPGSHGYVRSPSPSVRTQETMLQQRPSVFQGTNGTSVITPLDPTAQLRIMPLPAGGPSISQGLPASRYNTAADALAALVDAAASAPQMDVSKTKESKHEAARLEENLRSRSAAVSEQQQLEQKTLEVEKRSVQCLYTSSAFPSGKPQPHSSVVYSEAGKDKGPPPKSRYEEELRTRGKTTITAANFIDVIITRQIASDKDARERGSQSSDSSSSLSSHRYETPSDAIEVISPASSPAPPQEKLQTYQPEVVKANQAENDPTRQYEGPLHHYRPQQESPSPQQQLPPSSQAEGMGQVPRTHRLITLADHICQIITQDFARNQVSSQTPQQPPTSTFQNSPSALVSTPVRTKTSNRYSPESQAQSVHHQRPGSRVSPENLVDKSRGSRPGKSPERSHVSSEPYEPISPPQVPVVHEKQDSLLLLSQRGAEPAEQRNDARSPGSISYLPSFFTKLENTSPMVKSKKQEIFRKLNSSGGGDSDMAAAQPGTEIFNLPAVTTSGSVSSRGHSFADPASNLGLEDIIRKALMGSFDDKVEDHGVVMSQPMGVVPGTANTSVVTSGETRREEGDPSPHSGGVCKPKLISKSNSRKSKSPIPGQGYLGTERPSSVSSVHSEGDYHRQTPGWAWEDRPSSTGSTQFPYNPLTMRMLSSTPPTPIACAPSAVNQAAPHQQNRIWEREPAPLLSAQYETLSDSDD
UniProt P56556, whole entry, looked up: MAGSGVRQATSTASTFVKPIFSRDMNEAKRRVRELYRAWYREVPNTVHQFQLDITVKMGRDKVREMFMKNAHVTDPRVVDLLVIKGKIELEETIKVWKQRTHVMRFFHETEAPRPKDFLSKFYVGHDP
UniProt O95139, whole entry, looked up: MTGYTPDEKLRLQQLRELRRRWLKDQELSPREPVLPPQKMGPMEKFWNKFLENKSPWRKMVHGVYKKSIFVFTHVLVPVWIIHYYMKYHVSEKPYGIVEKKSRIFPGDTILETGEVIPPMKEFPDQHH
UniProt Q9UI09, whole entry, looked up: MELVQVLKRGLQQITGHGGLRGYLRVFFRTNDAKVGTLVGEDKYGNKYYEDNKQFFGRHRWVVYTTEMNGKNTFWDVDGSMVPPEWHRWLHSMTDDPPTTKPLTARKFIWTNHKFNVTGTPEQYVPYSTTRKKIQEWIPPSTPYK
UniProt O43181, whole entry, looked up: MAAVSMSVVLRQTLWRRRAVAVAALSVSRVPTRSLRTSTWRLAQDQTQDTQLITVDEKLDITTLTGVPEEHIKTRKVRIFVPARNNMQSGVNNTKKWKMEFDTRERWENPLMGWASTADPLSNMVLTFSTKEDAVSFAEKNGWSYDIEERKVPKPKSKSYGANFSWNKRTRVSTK
UniProt O43678, whole entry, looked up: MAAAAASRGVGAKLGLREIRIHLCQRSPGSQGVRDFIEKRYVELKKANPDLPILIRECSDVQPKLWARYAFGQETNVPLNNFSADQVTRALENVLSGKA
UniProt O95168, whole entry, looked up: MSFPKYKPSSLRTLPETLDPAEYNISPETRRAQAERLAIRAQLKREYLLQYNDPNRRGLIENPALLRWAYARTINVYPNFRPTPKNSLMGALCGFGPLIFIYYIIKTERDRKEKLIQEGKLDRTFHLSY
UniProt P49321, whole entry, looked up: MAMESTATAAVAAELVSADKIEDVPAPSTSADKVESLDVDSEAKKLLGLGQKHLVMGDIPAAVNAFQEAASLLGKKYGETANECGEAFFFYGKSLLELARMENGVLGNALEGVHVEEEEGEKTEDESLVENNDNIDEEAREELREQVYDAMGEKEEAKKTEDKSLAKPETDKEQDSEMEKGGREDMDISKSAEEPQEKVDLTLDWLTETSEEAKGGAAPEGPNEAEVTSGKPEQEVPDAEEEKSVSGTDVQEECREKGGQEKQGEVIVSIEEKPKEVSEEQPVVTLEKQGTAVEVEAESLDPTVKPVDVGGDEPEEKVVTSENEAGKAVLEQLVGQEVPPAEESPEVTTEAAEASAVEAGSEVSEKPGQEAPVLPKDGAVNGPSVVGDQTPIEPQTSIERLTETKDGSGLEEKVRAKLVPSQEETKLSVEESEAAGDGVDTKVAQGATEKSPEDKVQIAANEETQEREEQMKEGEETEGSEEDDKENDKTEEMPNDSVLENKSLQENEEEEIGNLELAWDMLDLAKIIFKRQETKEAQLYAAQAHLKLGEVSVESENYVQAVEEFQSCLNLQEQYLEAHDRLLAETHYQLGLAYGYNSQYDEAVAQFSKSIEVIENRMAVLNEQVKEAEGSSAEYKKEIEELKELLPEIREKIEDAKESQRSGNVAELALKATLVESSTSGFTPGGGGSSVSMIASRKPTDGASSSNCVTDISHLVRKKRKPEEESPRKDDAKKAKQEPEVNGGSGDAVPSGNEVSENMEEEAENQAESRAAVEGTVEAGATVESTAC
UniProt Q16795, whole entry, looked up: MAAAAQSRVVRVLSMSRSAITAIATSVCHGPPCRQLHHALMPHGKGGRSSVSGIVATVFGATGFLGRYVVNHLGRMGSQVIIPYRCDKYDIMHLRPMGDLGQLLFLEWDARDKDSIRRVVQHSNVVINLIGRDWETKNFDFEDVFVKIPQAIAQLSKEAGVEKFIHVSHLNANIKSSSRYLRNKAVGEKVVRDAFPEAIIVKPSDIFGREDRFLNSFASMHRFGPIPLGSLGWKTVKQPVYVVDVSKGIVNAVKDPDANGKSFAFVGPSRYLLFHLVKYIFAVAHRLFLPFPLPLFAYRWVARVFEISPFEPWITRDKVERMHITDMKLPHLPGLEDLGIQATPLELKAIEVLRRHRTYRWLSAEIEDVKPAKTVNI

Columns and labels:
Experiment in all cases: log2 fold change, soluble protein after heating vs DMSO (PISA); higher = thermal stabilisation; K562 cells, 10 uM, 30 min; active = over 0.2 and 3.5 SD of the protein, either way, in both replicates (recomputed)
[1] = compound: COC1=CC=C(C=C1)CN2C=CC3=C2C=C(C=C3)C(=O)NO
How it was run: (§1)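 K562 cells at 2×10^6 cells/mL were treated for 30 min with 10 μM compound, and aliquots were heated for 3 min over 48°C-58°C before pooling. Extraction used PBS with 0.5% NP-40 at 4°C, and soluble protein was the supernatant after 21,000xg for 90 min, measured by TMTpro 16plex LC-MS/MS with channel sums equalised. Thermal stability values, relative to control samples and from duplicates, are log2 fold changes.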

[2] = compound: CON(C)C(=O)N1N=C(c2cc(F)ccc2F)S[C@@]1(CCCN)c1ccccc1 [filanesib]
How it was run: as §1

[3] = compound: CO[C@H]1C[C@@H]2CC[C@@H](C)[C@@](O)(O2)C(=O)C(=O)N2CCCC[C@H]2C(=O)O[C@H]([C@H](C)C[C@@H]2CC[C@H](n3cnnn3)[C@H](OC)C2)CC(=O)[C@H](C)/C=C(\C)[C@@H](O)[C@@H](OC)C(=O)[C@H](C)C[C@H](C)/C=C/C=C/C=C/1C [zotarolimus]
How it was run: as §1

[4] = compound: COc1cc(C(=O)O)ccc1NC(=O)[C@@H]1N[C@@H](CC(C)(C)C)[C@](C#N)(c2ccc(Cl)cc2F)[C@H]1c1cccc(Cl)c1F [idasanutlin]
How it was run: as §1

[5] = compound: COc1cc(Nc2ncc3c(n2)-c2ccc(Cl)cc2C(c2c(F)cccc2OC)=NC3)ccc1C(=O)O [alisertib]
How it was run: as §1

[6] = compound: COc1cc2nc(-c3cc(F)ccc3O)nc(N[C@@H]3CNC[C@H]3C(C)(C)O)c2cc1OC
How it was run: as §1

[7] = compound: COc1cc2ncnc(Nc3ccc(F)c(Cl)c3)c2cc1OCCCN1CCOCC1 [gefitinib]
How it was run: as §1

[8] = compound: COc1cccc2cc(-c3nc([C@H]4CC[C@H](C(=O)O)CC4)n4ncnc(N)c34)[nH]c12
How it was run: as §1

[9] = compound: CS(=O)(=O)CCNCc1ccc(-c2ccc3ncnc(Nc4ccc(OCc5cccc(F)c5)c(Cl)c4)c3c2)o1 [lapatinib]
How it was run: as §1

[10] = compound: CS(=O)(=O)N1CCN(Cc2cc3nc(-c4cccc5[nH]ncc45)nc(N4CCOCC4)c3s2)CC1 [pictilisib]
How it was run: as §1

Measured: log2 fold change

NCAPD3 (UniProt P42695)
inactive: [1] -0.079 | [2] -0.081 | [3] -0.002 | [4] -0.069 | [5] -0.037 | [6] 0.039 | [7] -0.026 | [8] -0.013 | [9] -0.019 | [10] 0.143

NAA15 (UniProt Q9BXJ9)
inactive: [1] 0.004 | [2] -0.052 | [3] 0.022 | [4] -0.035 | [5] 0.022 | [6] 0.006 | [7] 0.025 | [8] 0.015 | [9] 0 | [10] -0.03

NDC80 (UniProt O14777)
inactive: [1] -0.072 | [2] 0.243 | [3] -0.01 | [4] 0.051 | [5] 0.009 | [6] 0.161 | [7] -0.132 | [8] -0.011 | [9] -0.112 | [10] 0.134

NCOR1 (UniProt O75376)
inactive: [1] -0.07 | [2] 0.078 | [3] 0.069 | [4] 0.004 | [5] -0.086 | [6] 0.128 | [7] -0.018 | [8] 0.064 | [9] -0.119 | [10] 0.135

NDUFA6 (UniProt P56556)
inactive: [1] 0.097 | [2] -0.035 | [3] 0.05 | [5] 0.044 | [6] 0.048 | [7] -0.004 | [8] 0.068 | [9] 0.097 | [10] 0.087
active: [4] -0.383

NCKAP1 isoform 2 (UniProt Q9Y2A7)
inactive: [1] 0.019 | [2] -0.042 | [3] 0.025 | [4] -0.035 | [5] 0.067 | [6] 0.008 | [7] -0.009 | [8] -0.038 | [9] 0.016 | [10] -0.049

NA, A0A096LPI6
inactive: [1] 0.008 | [2] -0.044 | [3] 0.019 | [4] -0.014 | [5] -0.034 | [6] -0.123 | [7] 0.018 | [8] 0.074 | [9] 0.029 | [10] -0.02

NCAPH (UniProt Q15003)
inactive: [1] -0.03 | [2] 0.018 | [3] 0.024 | [4] -0.046 | [5] 0.016 | [6] 0.092 | [7] 0 | [8] -0.065 | [9] -0.021 | [10] 0.062

NDUFAF4 (UniProt Q9P032)
inactive: [1] -0.021 | [2] -0.137 | [3] 0.018 | [4] -0.082 | [5] -0.037 | [6] -0.058 | [7] -0.025 | [8] 0.026 | [9] -0.015 | [10] 0.059

NDUFB6 (UniProt O95139)
inactive: [1] -0.046 | [2] -0.056 | [3] -0.029 | [4] 0 | [5] 0.026 | [6] -0.128 | [7] -0.018 | [8] 0.092 | [9] -0.099 | [10] 0.04

NDUFS7 (UniProt O75251)
inactive: [1] -0.009 | [2] -0.108 | [3] -0.036 | [4] -0.112 | [5] 0.039 | [6] -0.106 | [7] -0.029 | [8] 0.057 | [9] 0.015 | [10] 0.047

NCAPD2 (UniProt Q15021)
inactive: [1] 0.025 | [2] -0.006 | [3] 0.061 | [4] -0.072 | [5] -0.005 | [6] 0.092 | [7] 0.029 | [8] -0.138 | [9] -0.024 | [10] 0.059

NDUFA7 (UniProt O95182)
inactive: [1] 0.003 | [2] -0.072 | [3] 0.005 | [4] -0.197 | [5] -0.042 | [6] -0.147 | [7] -0.178 | [8] 0.013 | [9] -0.002 | [10] -0.007

NAGLU (UniProt P54802)
inactive: [1] 0.052 | [2] 0.004 | [3] 0.046 | [4] 0.018 | [5] 0.072 | [6] -0.052 | [7] 0.04 | [8] 0.066 | [9] 0.017 | [10] 0.068

NDUFA12 (UniProt Q9UI09)
inactive: [1] -0.011 | [2] -0.071 | [3] 0.002 | [4] -0.213 | [5] 0.019 | [6] -0.167 | [7] -0.086 | [8] 0.056 | [9] -0.04 | [10] 0.023

NDUFS4 (UniProt O43181)
inactive: [1] -0.018 | [2] -0.019 | [3] -0.022 | [4] 0.035 | [5] -0.074 | [6] -0.077 | [7] -0.008 | [8] 0.036 | [9] 0.029 | [10] -0.122

NDUFA4 (UniProt O00483)
inactive: [1] -0.022 | [2] -0.031 | [3] -0.019 | [4] 0.038 | [5] -0.024 | [6] -0.044 | [7] 0.024 | [8] 0.019 | [9] 0.048 | [10] -0.025

NCSTN (UniProt Q92542)
inactive: [1] -0.091 | [2] 0.012 | [3] -0.028 | [4] -0.069 | [5] -0.009 | [6] -0.026 | [7] 0.022 | [8] 0.06 | [9] -0.043 | [10] 0.082

NDUFS5 (UniProt O43920)
inactive: [1] -0.042 | [2] 0.017 | [3] -0.044 | [4] -0.004 | [5] 0.02 | [6] -0.046 | [7] -0.035 | [8] 0.083 | [9] -0.058 | [10] 0.041

NDRG3 (UniProt Q9UGV2)
inactive: [1] -0.006 | [2] -0.08 | [3] 0.065 | [4] 0.033 | [5] -0.094 | [6] -0.054 | [7] 0.001 | [8] 0.044 | [9] -0.003 | [10] 0.082

NDUFA2 (UniProt O43678)
inactive: [1] -0.076 | [2] -0.015 | [3] 0.081 | [4] -0.177 | [5] -0.064 | [6] 0.043 | [7] -0.018 | [8] -0.038 | [9] 0.001 | [10] -0.102

NACA (UniProt E9PAV3)
inactive: [1] 0.019 | [2] -0.01 | [3] -0.081 | [4] 0.046 | [5] -0.056 | [6] -0.035 | [7] -0.018 | [8] 0.075 | [9] 0.016 | [10] 0.017

NDUFB4 (UniProt O95168)
inactive: [1] -0.055 | [2] -0.107 | [3] 0.001 | [4] 0.101 | [5] -0.154 | [6] -0.019 | [7] -0.007 | [8] -0.028 | [9] -0.056 | [10] 0.018

Two entries drawn at random from the list so far:
NDRG3 (UniProt Q9UGV2)
inactive: [1] -0.006 | [2] -0.08 | [3] 0.065 | [4] 0.033 | [5] -0.094 | [6] -0.054 | [7] 0.001 | [8] 0.044 | [9] -0.003 | [10] 0.082

NCAPH (UniProt Q15003)
inactive: [1] -0.03 | [2] 0.018 | [3] 0.024 | [4] -0.046 | [5] 0.016 | [6] 0.092 | [7] 0 | [8] -0.065 | [9] -0.021 | [10] 0.062

Next entries follow.

NASP (UniProt P49321)
inactive: [1] 0.01 | [2] -0.009 | [3] 0.05 | [4] -0.021 | [5] -0.03 | [6] 0.029 | [7] 0.001 | [8] -0.023 | [9] -0.023 | [10] 0.007

NAMPT (UniProt P43490)
inactive: [1] -0.076 | [2] -0.043 | [3] -0.018 | [4] -0.023 | [5] -0.039 | [6] 0.029 | [7] 0.025 | [8] 0.06 | [9] -0.04 | [10] 0.013

NAA50 (UniProt Q9GZZ1)
inactive: [1] 0.146 | [2] -0.115 | [3] 0.049 | [4] 0.011 | [5] -0.005 | [6] -0.018 | [7] 0.006 | [8] 0.033 | [9] 0.009 | [10] -0.045

NDUFV2 (UniProt P19404)
inactive: [1] -0.033 | [2] -0.003 | [3] 0.02 | [4] 0.004 | [5] 0.092 | [6] 0.031 | [7] -0.009 | [8] 0.029 | [9] -0.032 | [10] -0.031

NDUFA9 (UniProt Q16795)
inactive: [1] -0.002 | [2] -0.116 | [3] 0.008 | [5] -0.04 | [6] -0.008 | [7] -0.055 | [8] 0.014 | [9] -0.052 | [10] -0.024
active: [4] -0.229

NBN (UniProt O60934)
inactive: [1] -0.039 | [2] -0.007 | [3] 0.039 | [4] -0.053 | [5] 0.057 | [6] 0.028 | [7] 0.03 | [8] -0.019 | [9] 0.008 | [10] -0.035
